Numbering of substitutions follows the chain as printed. For part of these data: The comparison behind a weaker result is the experiment's own reference, which may not be listed here. Where a protein sequence is shown, tags need not be part of it. For part of these data: For at least one entry, the source does not settle the construct or the ends of the probe. For part of these data: Where cells or extracts were used, other partners may take part.
What was measured:
Flag-CP2c = biological target: T1, Flag-CP2c (UniProt Q9ERA0); test: activity in cells; settings: luciferase reporter in 293T; transactivation inhibited by Peptide 5C and 5-2C; protein in cells; protein details: Flag, expressed in 293T
T1 sequence (looked up, limits assumed): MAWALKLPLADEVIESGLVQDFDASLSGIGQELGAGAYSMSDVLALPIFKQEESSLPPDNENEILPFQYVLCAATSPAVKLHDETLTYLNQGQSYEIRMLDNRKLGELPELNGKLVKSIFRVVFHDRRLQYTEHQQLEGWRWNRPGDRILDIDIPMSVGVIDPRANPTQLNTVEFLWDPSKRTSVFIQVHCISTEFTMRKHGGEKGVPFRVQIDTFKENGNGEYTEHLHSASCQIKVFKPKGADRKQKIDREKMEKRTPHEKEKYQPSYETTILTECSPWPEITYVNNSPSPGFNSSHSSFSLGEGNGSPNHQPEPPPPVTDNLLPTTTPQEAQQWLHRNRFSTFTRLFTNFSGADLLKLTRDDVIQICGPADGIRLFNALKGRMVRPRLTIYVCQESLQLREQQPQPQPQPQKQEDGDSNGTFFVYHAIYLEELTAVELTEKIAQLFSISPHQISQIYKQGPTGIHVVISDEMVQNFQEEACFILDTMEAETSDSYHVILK

GST-CP2c R339A = biological target: T2, GST-CP2c R339A (UniProt Q9ERA0); test: pull-down; settings: DNA-IP; R339 stated important for DNA binding; purified recombinant protein; protein details: GST fusion, E. coli; label: 32P
T2 sequence (looked up, limits assumed): T1 sequence (looked up, limits assumed) with R339A

[1] = biological target: T3, CP2c (TFCP2) (Mus musculus) (UniProt Q9ERA0); test: pull-down; settings: DNA immunoprecipitation with anti-CP2c; binding inhibited by Peptide 5 and Peptide 5-2, negligibly by Peptide 8 and 5-1; room temperature; protein in an …; label: 32P
T3 sequence (looked up, limits assumed): T1 sequence (looked up, limits assumed)

GST-CP2c R387A = biological target: T4, GST-CP2c R387A (UniProt Q9ERA0); test: pull-down; settings: DNA-IP; R387 stated important for DNA binding; purified recombinant protein; protein details: GST fusion, E. coli; label: 32P
T4 sequence (looked up, limits assumed): T1 sequence (looked up, limits assumed) with R387A

GST-CP2c R341A = biological target: T5, GST-CP2c R341A (UniProt Q9ERA0); test: pull-down; settings: DNA-IP; R341 stated important for DNA binding; purified recombinant protein; protein details: GST fusion, E. coli; label: 32P
T5 sequence (looked up, limits assumed): T1 sequence (looked up, limits assumed) with R341A

GST-CP2c E332A = biological target: T6, GST-CP2c E332A (UniProt Q9ERA0); test: pull-down; settings: DNA-IP; E332 stated important for DNA binding; purified recombinant protein; protein details: GST fusion, E. coli; label: 32P
T6 sequence (looked up, limits assumed): T1 sequence (looked up, limits assumed) with E332A

In the case of “CGAGTCCATCTGATAAGACTTATCTGCTGCCCCAGAGCAGGCCAGAGCTGGCGTAAGCCCCAG (double strand) [GATA-1 enhancer reporter, wild type CP2c sites]”, the “activity on this sequence” value (Flag-CP2c) was “active”.

“GATCCCAAGTTTTACTCGGTAGAGCAAGCACAAACCAGG (double strand) [alpha-globin promoter CP2c site probe]”: binds more weakly (GST-CP2c R339A); binds [1]; binds more weakly (GST-CP2c R387A). “GATCCCAAGTTTTACTCGGTAGAGCAAGCACAAACCAGG (double strand) [alpha-globin promoter CP2c site probe]”: binds more weakly (GST-CP2c R341A); binds more weakly (GST-CP2c E332A).

From patent US10611797B2, “Peptide having anticancer activity, and pharmaceutical composition and dietary supplement composition for preventing and treating cancer, both of which contain same as active ingredient” (IUCF-HYU (INDUSTRY-UNIVERSITY COOPERATION FOUNDATION …, priority 2015, dated 2020)
